Patent US20080299599A1, “FLUORESCENT PROTEINS FOR MONITORING INTRACELLULAR SUPEROXIDE PRODUCTION” (priority 2006, published 2008)

Assay: Spectral analysis of purified cpYFP: in vitro redox calibration and response to ROS and metabolites
Format: biochemical
Protocol: cpYFP cDNA (807 bp) was cloned into a prokaryotic expression vector (pRSET) and transferred into E. Coli cell line (BL21(DE3)LysS) for large-scale protein expression. In vitro redox calibration of cpYFP fluorescence was carried out using methods described previously (Hanson et al., J. Biol. Chem., 279: 13044-13053, 2004). Briefly, under an inert environment, purified cpYFP protein (1 μM) was incubated with either 10 mM reduced DTT or 1 mM aldrithiol for at least 3 hours, allowing for solution equilibration. Reduced DTT was removed from the solution allowing measurement of cpYFP response to various ROS and metabolites. The calibration solution contained (in mM): HEPES 75, KCl 125, and EDTA 1, pH=8.0. Emission and excitation spectra of reduced and oxidized cpYFP in the presence of designated reagents were obtained with a spectrofluorimeter (Model: CM1T101, HORIBA Jobin Yvon, Inc.) filled with nitrogen gas.
Using cpYFP purified from an E. coli expression system, excitation and emission fluorescence spectra were measured in response to reducing (10 mM reduced DTT) and oxidizing manipulations (1 mM aldrithiol). […] Extensive in vitro experiments were performed to determine the selectivity of cpYFP among physiologically relevant oxidants and metabolites. […] The cpYFP signal, however, was insensitive to hydrogen peroxide (H2O2) over a wide range of concentrations (0.1-10 mM) (FIG. 1c) and peroxynitrite (FIG. 2), and was decreased by hydroxyl radicals (.OH) (FIG. 1c) and nitric oxide (FIG. 2).

cpYFP: circularly permuted yellow fluorescent protein; superoxide probe of SEQ ID NO. 1, pericam without calmodulin and M13 domains
emission maximum wavelength: 515 nm | superoxide insensitive excitation wavelength (isobestic point): 405 nm | superoxide sensitive excitation maximum wavelength: 488 nm
